Assay results taken from patent US20230056424A1, “PREVENTION OF THE CONVERSION OF PHARMACEUTICAL AGENTS INTO TOXIC N-NITROSAMINE COMPOUNDS” (ALFRED E. TIEFENBACHER (GMBH & CO. KG), priority 2021, published 2023).
Some results were stated once for a whole list of compounds, not compound by compound.

Assay: N-Nitroso-Varenicline content of the API batches used, LCMS
Type: physicochemical
Conditions: LOD of method for API 0.2 ppm, w.r. to varenicline free base

Row | Substance | amount of N-Nitroso-Varenicline impurity in the used API batch [ppm]
1 | varenicline tartrate | < 0.2
2 | varenicline citrate | < 0.2
